From ChEMBL document CHEMBL3988442, “University of Dundee, Small-Polar-MMV Screening Library” (2021).

Mtb cholesterol medium: 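Growth of Mycobacterium tuberculosis over 4 days (cholesterol / DPPC medium with tyloxapol); the read-out is not stated. Concentration: 50 µM. Direction is inferred from retests: higher values go with more growth inhibition. About 69,000 compounds were tested under these conditions; 0.54% (about 370) showed 50% or more at least once.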
Mtb glucose medium: 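Growth of Mycobacterium tuberculosis over 3 days (7H9 medium with glucose and tyloxapol); the read-out is not stated. Compounds at 50 µM. Direction is inferred from retests: higher values go with more growth inhibition. About 69,000 compounds were tested under these conditions; 1.1% (about 760) showed 50% or more at least once.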

Each number is a percent effect as filed.
The controls that fix the scale are not given in the record; negative values are as filed.
The compounds are a random part of those screened.
Two or more numbers in one place are separate tests of the same structure; such repeats can differ widely.

| compound | Mtb cholesterol medium | Mtb glucose medium |
|---|---|---|
| `CN(CC(=O)c1ccc2[nH]c(=O)[nH]c2c1)Cc1ccc2c(c1)OCO2` | -16.54 | -0.1448 |
| `O=C(O)C(F)(F)F.[H][C@]12CCC[C@@H](CNc3ncccn3)[C@@]1([H])CN(Cc1cnn(C)c1)C2` | -6.912 | -15.85 |
| `OCCn1cc(CN2CCN(CCOc3cccc(F)c3)CC2)cn1` | -3.365 | -26.76 |
| `CCc1ccc(-c2noc(Cn3nc(C(N)=O)ccc3=O)n2)cc1` | 3.997 | -6.196 |
| `COC(=O)CCN(CC1CCCO1)C(=O)CCc1ccc(OC)cc1` (configuration not stated) | -2.884 | -22.3 & 5.869 |
| `Cc1noc(C(C)C)c1C(=O)N1CCOCC1CC(=O)c1ccco1` (configuration not stated) | -8.028 | 2.408 & -9.183 |
| `O=C(O)C(F)(F)F.[H][C@@]12COC[C@]1(COc1ccccn1)CN(C(=O)c1c(C)noc1C)C2` | 7.004 | -10.08 |
| `O=C(O)C(F)(F)F.O=C(O)C(F)(F)F.[H][C@]12CCN(c3ncc(C)cn3)C[C@@]1([H])OCCN(Cc1ccncc1)C2` | -28.29 | -25.93 |
| `Cc1cc(C2CCCN(C(=O)c3ccc(Cl)o3)C2)n[nH]1` (configuration not stated) | 1.16 | 35.2 |
| `COc1ccccc1Nc1nc2c(s1)C(=O)CN(C(=O)CC(C)C)C2` | -16.89 | 2.496 |
| `Cn1c(Nc2cn[nH]c2)c(C#N)c(=O)n(C)c1=O` | -10.1 | -21.24 |
| `CCCC(NC(=O)c1cc(C)c(F)cc1F)c1nnn[nH]1` (configuration not stated) | -8.591 & -10.58 | 31.84 |
| `[H][C@]12CC[C@]([H])(CN(C(=O)c3ccccn3)C1)N(C(=O)CCc1ccsc1)C2` | -31.24 | -24.9 |
| `COc1ccc(NC(C)C(=O)NCCc2cccs2)cc1F` (configuration not stated) | -20.91 | -17.93 & -1.561 |
| `COc1cc(N(C)CCCn2nc(C)cc2C)ncn1` | -20.36 | -16.87 |
| `Cn1nc(CN2CCCCC2)c2c1CN(C(=O)c1cccc(Cl)c1)C2` | -58.98 | -57.29 |
| `Cc1nc(C2CCCN(C(=O)CO)C2)cc(N2CCOCC2)n1` (configuration not stated) | -10.06 | 8.14 |
| `CCn1nc(C)cc1S(=O)(=O)N1CCC2(CCCN(C(C)C)C2=O)C1` (configuration not stated) | 21.35 | 24 |
| `CC(C)c1noc(CS(=O)(=O)CC(=O)NCC(F)(F)F)n1` | -9.367 & -35.13 | -21.55 |
| `COC(=O)c1ccc(/C=C/c2ncc(C(=O)O)s2)cc1` | -16.35 | 6.543 |
| `CC(C)COCC(NC(=O)c1ccncc1)c1ccco1` (configuration not stated) | -21.19 | -21.87 |
| `O=C(NC1CC1)C1CCc2nnc(C3CC3)n21` (configuration not stated) | 6.236 | 31.46 |
| `O=C(NCCNc1cnccn1)N1CCN(Cc2cccnc2)CC1` | -8.529 | -10.01 |
| `Cc1noc(C)c1CN(C)C(=O)c1ccc2c(c1O)OC(C)(C)C2` | -2.731 | -12.86 & -4.038 |
| `Cn1ccnc1-c1cnn(CC(=O)Nc2ccnn2C)c1` | 4.347 | -10.61 & -4.288 |
| `COc1cc(N2CCCC(c3nccn3Cc3cccnc3)C2)ncn1` (configuration not stated) | 19.43 | -3.462 |
| `COc1ccc(CN2C[C@@H](F)[C@@H](OCc3nc4cnccc4[nH]3)C2)cn1` | -6.575 | -6.506 & -19.47 |
| `CCC(CO)NCc1ccc(-c2ccc(F)cc2)o1.Cl` (configuration not stated) | 10.35 | 6.878 & 12 |
| `CC(=O)NCC(=O)N1Cc2cnc(CC(C)C)nc2C1` | 9.045 | -4.405 & -25.04 |
| `COc1coc(C(=O)Nc2nc(C)cs2)cc1=O` | -24.63 | 6.086 |
| `N#Cc1cnn(C(=O)COc2ccccc2F)c1N` | 2.913 | -2.264 & 8.409 |
| `O=S(=O)(c1cnccc1N1CCN(CCO)CC1)N1CCCCC1` | -21.15 | -20.64 |
| `O=C(c1cc2c([nH]c1=O)CCC2)N1CCCC1c1ccccn1` (configuration not stated) | 7.899 | 25.83 |
| `COCCNC(=O)CN(C)Cc1ccc(F)cc1Cl` | -5.263 | 3.914 |
| `Cc1noc(Cl)c1CCC(=O)N1CCN(c2cnccn2)CC1` | -2.357 | -12.03 |
| `COCc1nc2cc(NCc3ccc(CO)o3)ccc2o1` | -27.34 | -43.12 & -7.002 |
| `CN1CCOC(CNC(=O)Cc2coc(-c3ccccc3)n2)C1` (configuration not stated) | 22.8 | 3.412 & 13.01 |
| `CCC(=O)N1CCC(c2nnc(Cn3cccn3)n2C2CC2)CC1` | 6.199 | -0.8413 & 24.03 |
| `c1cnn(CC2CN(Cc3noc(C4CC4)n3)CCO2)c1` (configuration not stated) | 7.913 | 12.55 |
| `CC(SCCC(=O)NC(N)=O)c1cccc(F)c1` (configuration not stated) | -19.74 | 15.75 & -9.217 |
| `Cc1ccc(NC2CCN(C(=O)c3c(C)oc(C)c3C)CC2)nn1` | 9.692 | 7.937 |
| `CCOc1ccc(CN(CC)C(=O)c2ccc(C)[nH]c2=O)cc1OC` | 0.9072 | 15.3 |
| `CCCN1CC2(CCN(c3cc(C4CC4)ncn3)CC2)CC1C(=O)O` (configuration not stated) | 21.43 | 13.65 |
| `O=C(CC1=CSC2=NCCCN12)N1CCCCC1c1cccc(F)c1` (configuration not stated) | -52.16 | -12.51 & -41.93 |
| `CCN1CCC2(CC1)OCCN2C(=O)c1cc(Cl)c(OC)c(Cl)c1.Cl` | -4.404 | -19.74 |
| `CC(=O)NC1CCCN(C(=O)CNc2cc(Cl)cc(Cl)c2)C1` (configuration not stated) | 17.91 | 35.51 |
| `Cc1cnn(C2CN(CC(=O)NCC(C)C)C2)c1` | -8.229 | 19.99 |
| `CN1CCC2(CCCN(S(=O)(=O)c3ccc(-c4cnco4)s3)C2)C1` (configuration not stated) | 2.205 | -16.7 |
| `CC(C)N1CCC(NC(=O)NCc2cccnc2)C1` (configuration not stated) | -2.508 | -1.279 & 14.11 |
| `CN1CCOC(CNCc2nc(-c3cccnc3)no2)C1` (configuration not stated) | 15.41 | 30.87 |
| `Cc1cc(C(=O)N2CCCC(n3cncn3)C2)no1` (configuration not stated) | -7.126 | -11.33 |
| `O=C(NC1CCCN(c2ccccn2)C1)C1(c2ccccc2F)CC1` (configuration not stated) | 0.658 & 9.909 | 22.05 |
| `Cc1cc(NCCc2cnccn2)nc(-c2ccccc2O)n1` | 19.03 | 33.56 |
| `CN1CCN(S(=O)(=O)c2cncc(F)c2)c2ccccc2C1` | 7.433 | -4.091 |
| `Cc1nc2c(c(C)c1CC(=O)NCc1cccc(C#N)c1)c(=O)[nH]n2C` | 9.78 | -2.442 |
| `Cc1noc(C)c1CN(C)C(=O)CCn1c(=O)n(C)c2ccccc21` | -4.168 | 13.27 |
| `CC(C)c1nc(C2CCCN2C(=O)c2ccc(N(C)C)nn2)no1` (configuration not stated) | -15.61 | -19.18 |
| `Nc1cc2c(nn1)CCN(C(=O)c1csc(-c3ccccc3)n1)C2` | 7.728 | 10.68 |
| `Cc1cc(C)n(-c2cncc(N3CCC(C(=O)N(C)C)CC3)n2)n1` | -18.33 | -46.08 & -5.108 |

Repeated from the top, 6 entries:

{"compound": "CN(CC(=O)c1ccc2[nH]c(=O)[nH]c2c1)Cc1ccc2c(c1)OCO2", "Mtb cholesterol medium": -16.54, "Mtb glucose medium": -0.1448}
{"compound": "O=C(O)C(F)(F)F.[H][C@]12CCC[C@@H](CNc3ncccn3)[C@@]1([H])CN(Cc1cnn(C)c1)C2", "Mtb cholesterol medium": -6.912, "Mtb glucose medium": -15.85}
{"compound": "OCCn1cc(CN2CCN(CCOc3cccc(F)c3)CC2)cn1", "Mtb cholesterol medium": -3.365, "Mtb glucose medium": -26.76}
{"compound": "CCc1ccc(-c2noc(Cn3nc(C(N)=O)ccc3=O)n2)cc1", "Mtb cholesterol medium": 3.997, "Mtb glucose medium": -6.196}
{"compound": "COC(=O)CCN(CC1CCCO1)C(=O)CCc1ccc(OC)cc1", "stereo": "configuration not stated", "Mtb cholesterol medium": -2.884, "Mtb glucose medium": "-22.3 & 5.869"}
{"compound": "Cc1noc(C(C)C)c1C(=O)N1CCOCC1CC(=O)c1ccco1", "stereo": "configuration not stated", "Mtb cholesterol medium": -8.028, "Mtb glucose medium": "2.408 & -9.183"}